Measurements reported in the supplement of paper PMC5770031.
Structures can show the parent of a compound that is named as a salt. The list shows a part of the results. Repeats in this data set agree poorly, so a single value says little.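 ATM8/balancer (normal ATM) heterozygous flies were crossed on treated food; parents laid eggs 5–6 days, offspring developed ~12 days, so parents and larvae ingested compound. Readout: fraction of emerged adults homozygous for ATM8 versus 2% DMSO controls. Compounds were neutral at 10–20% homozygotes, harmful below 10%, helpful above 20%.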

system: Drosophila melanogaster ATM8 (temperature-sensitive ATM allele); experiment: fraction of eclosed F1 progeny that are homozygous ATM8 (rescue of developmental lethality); higher = more rescue of ATM8 developmental lethality; extreme values may be limits of the assay; conditions: compound concentration applied to food 0.2 mM; 21 °C

| SMILES | fraction of eclosed F1 progeny that are homozygous ATM8 |
| --- | --- |
| COc1c2ccoc2c(OC)c2oc(=O)ccc12 | 0.08 |
| c1ccc2c(c1)cc1ccc3cccc4ccc2c1c34 | 0.262 |
| COc1cc(OC)c(C(C)=O)c(O)c1C | 0.0909 |
| Cc1onc(-c2c(Cl)cccc2Cl)c1C(=O)N[C@@H]1C(=O)N2[C@@H]1SC(C)(C)[C@@H]2C(=O)O | 0.24 |
| CN1C(C)(C)CCCC1(C)C | 0.111 |
| CC[N+](C)(C)Cc1ccccc1Br | 0.319 |
| C[N+](C)(C)CCCCCC[N+](C)(C)C | 0.118 |
| CN(C)/N=N/c1[nH]cnc1C(N)=O | 0.0541 |
| O=c1ccc2ccc(O)cc2o1 | 0.125 |
| O=C(O)c1cccnc1Nc1cccc(C(F)(F)F)c1 | 0.0682 |
| CC(=O)Oc1ccc2c(c1)CC[C@@H]1[C@@H]2CC[C@]2(C)[C@@H](O)CC[C@@H]12 | 0.0889 |
| Cc1oncc1C(=O)Nc1ccc(C(F)(F)F)cc1 | 0.0645 |
| CC1CC(OC(=O)C(O)c2ccccc2)CC(C)(C)C1 (centres undefined) | 0.0755 |
| CCOC(=O)[C@H](CCc1ccccc1)N[C@@H](C)C(=O)N1Cc2ccccc2C[C@H]1C(=O)O | 0.0726 |
| CC(CCc1ccccc1)NCC(O)c1ccc(O)c(C(N)=O)c1 (centres undefined) | 0.0446 |
| O=C(O)c1cccc(O)c1O | 0.0833 |
| NC(=O)c1cc[n+](CC2=C(C(=O)O)N3C(=O)[C@@H](NC(=O)[C@@H](c4ccccc4)S(=O)(=O)[O-])[C@H]3SC2)cc1 | 0.425 |
| CCCCCCCCCc1ccc(OCCOCCOCCOCCOCCOCCOCCOCCOCCO)cc1 | 0.2 |
| CC(C)c1ccc2oc3nc(N)c(C(=O)O)cc3c(=O)c2c1 | 0.0909 |
| COc1c(-c2coc3cc4c(cc3c2=O)CC(OC(C)=O)C(C)(C)O4)ccc2c1C=CC(C)(C)O2 (centres undefined) | 0.093 |

| SMILES | fraction of eclosed F1 progeny that are homozygous ATM8 |
| --- | --- |
| CC1(C)S[C@@H]2[C@H](NC(=O)[C@H](NC(=O)N3CCNC3=O)c3ccccc3)C(=O)N2[C@H]1C(=O)O | 0.0405 |
| N#C/C(=C\c1ccc(O)cc1)C(=O)O [alpha-CYANO-4-HYDROXYCINNAMIC ACID] | 0.0645 |
| CC(=O)Oc1ccc(/C=C/c2cc(OC(C)=O)cc(OC(C)=O)c2)cc1 | 0.214 |
| COC(=O)Nc1nc2cc(C(=O)c3ccccc3)ccc2[nH]1 | 0.127 |
| CC1=C(O)C(=O)C=C2C1=CC=C1[C@@]2(C)CC[C@@]2(C)[C@@H]3C[C@](C)(C(=O)O)CC[C@]3(C)CC[C@]12C | 0.046 |
| CCCCCCc1ccc(O)cc1O.Nc1c2ccccc2nc2ccccc12 | 0.238 |
| Cc1cc2c(cc1S(N)(=O)=O)S(=O)(=O)CCC2 | 0.238 |
| CC1(C)CC[C@]2(C)CC[C@]3(C)C(=CC[C@@H]4[C@@]5(C)CC[C@H](O)C(C)(C)[C@@H]5CC[C@]43C)[C@@H]2C1 [beta-AMYRIN] | 0.208 |
| CC(C)(O)C(Cl)(Cl)Cl | 0.103 |
| OCCOCCN1CCN(C2=Nc3ccccc3Sc3ccccc32)CC1 | 0.324 |
| Cc1cc(O)c(C)c(O)c1C(=O)O | 0.111 |
| COC(=O)[C@]1(C)CC[C@]2(C)CC[C@]3(C)C4=CC=C5C(=CC(=O)C(O)=C5C)[C@]4(C)CC[C@@]3(C)[C@@H]2C1 | 0.35 |
| CC1(C)S[C@@H]2[C@H](NC(=O)[C@H](N)c3ccc(O)cc3)C(=O)N2[C@H]1C(=O)O | 0.05 |
| COc1cccc2c1C(=O)c1c(O)c3c(c(O)c1C2=O)C[C@@](O)(C(=O)CO)C[C@@H]3O[C@H]1C[C@H](N)[C@H](O)[C@H](C)O1 | 0 |
| NC(=O)SC[C@H](N)C(=O)O | 0.217 |
| Cc1ncc(CNC(=O)N(CCCl)N=O)c(N)n1 | 0.2 |
| CN[C@@H]1[C@H](O[C@H]2[C@H](O[C@H]3[C@H](O)[C@@H](O)[C@H](N=C(N)N)[C@@H](O)[C@@H]3N=C(N)N)O[C@@H](C)[C@]2(O)C=O)O[C@@H](CO)[C@H](O)[C@H]1O [STREPTOMYCIN SULFATE [5mM; 10% aq DMSO + 5mM ethanolamine]] | 0.194 |
| Cc1ccc2c(Br)cc(Br)c(OC(=O)c3ccccc3)c2n1 | 0.247 |
| Cc1cccc(C(=O)O)c1O | 0.0556 |
| Fc1ccc(C(c2ccc(F)cc2)N2CCN(C/C=C/c3ccccc3)CC2)cc1 | 0.0741 |

| SMILES | fraction of eclosed F1 progeny that are homozygous ATM8 |
| --- | --- |
| CN1CCc2c(c3ccccc3n2Cc2ccccc2)C1 | 0.0952 |
| COc1ccc2oc(-c3ccccc3OC)cc(=O)c2c1 | 0.207 |
| Cc1ccc(Nc2c(F)cccc2Cl)c(CC(=O)O)c1 | 0 |
| CCCCC(=O)O[C@H]1CC[C@H]2[C@@H]3CCc4cc(O)ccc4[C@H]3CC[C@]12C | 0 |
| COc1ccc(/C=C/C(=O)O)cc1OC | 0.0635 |
| CC(=O)Nc1cc2ccccc2oc1=O | 0.125 |
| CN1CCCCC1c1ccc(-c2cccnc2)nc1 (centres undefined) | 0.0889 |
| O=C(OC[C@H]1O[C@@H](OC(=O)c2cc(O)c(O)c(OC(=O)c3cc(O)c(O)c(O)c3)c2)[C@H](OC(=O)c2cc(O)c(O)c(OC(=O)c3cc(O)c(O)c(O)c3)c2)[C@@H](OC(=O)c2cc(O)c(O)c(OC(=O)c3cc(O)c(O)c(O)c3)c2)[C@@H]1OC(=O)c1cc(O)c(O)c(OC(=O)c2cc(O)c(O)c(O)c2)c1)c1cc(O)c(O)c(OC(=O)c2cc(O)c(O)c(O)c2)c1 | 0.178 |
| N=C(N)c1ccc(OCCCCCOc2ccc(C(=N)N)cc2)cc1 | 0.125 |
| CO/N=C(\C(=O)N[C@@H]1C(=O)N2C(C(=O)OCOC(=O)C(C)(C)C)=C(/C=C\c3scnc3C)CS[C@H]12)c1csc(N)n1 | 0.373 |
| CCCCCCCCCc1ccc(O)cc1 | 0.417 |
| c1ccc2c(Cc3c[nH]c4ccccc34)c[nH]c2c1 | 0.0556 |
| CN(N=O)C(=O)N[C@H]1C(O)O[C@H](CO)[C@@H](O)[C@@H]1O (mixture of isomers) | 0.17 |
| CC1=C(CCC(=O)O)c2cc3[nH]c(cc4nc(cc5[nH]c(cc1n2)c(C)c5C(C)O)C(C)=C4C(C)O)c(C)c3CCC(=O)O (centres undefined) | 0.187 |
| CCOC(=O)C1=C[C@@H](OC(CC)CC)[C@H](NC(C)=O)[C@@H](N)C1 | 0.136 |
| CNCCCC1c2ccccc2C=Cc2ccccc21 | 0.193 |
| CC1(C)C(=O)C=C[C@]2(C)[C@H]3CC[C@@]4(C)[C@H](c5ccoc5)OC(=O)[C@H]5O[C@]54[C@]3(C)C(=O)C[C@@H]12 | 0.107 |
| Oc1ncnc2[nH]ncc12 | 0.167 |
| COc1ccc(C(=O)c2ccccc2)c(O)c1 | 0.239 |

Quoted from the listing.
CN1CCCCC1c1ccc(-c2cccnc2)nc1 (centres undefined) | fraction of eclosed F1 progeny that are homozygous ATM8: 0.0889
Fc1ccc(C(c2ccc(F)cc2)N2CCN(C/C=C/c3ccccc3)CC2)cc1 | fraction of eclosed F1 progeny that are homozygous ATM8: 0.0741
